In article PMC5144071, “Functional characterization of aconitase X as a cis-3-hydroxy-L-proline dehydratase” (Scientific Reports, 2016):
Results are given in words; binding and its absence hold for the method and conditions named.

Target: PaLhpI protein (aconitase X type I, cis-3-hydroxy-L-proline dehydratase) from Pseudomonas aeruginosa PAO1 (Pseudomonas aeruginosa PAO1) (UniProt Q9I485)
Assay: SEC; analytic gel filtration, HiLoad 16/60 Superdex 200 pg column, 50 mM Tris-HCl buffer (pH 8.0), high-molecular-weight calibration kit; 67 kDa against 60 kDa by SDS-PAGE; both purified

B1: PaLhpI protein (aconitase X type I, cis-3-hydroxy-L-proline dehydratase) from Pseudomonas aeruginosa PAO1 (enzyme, UniProt Q9I485 1-580)
chain: MKHAHLIVPRTLVAGSASGELLYAPTGLSFWGGVDPRSAEVIDRHHPLSGRHLHGRLLAIPGGRGSCTGSSVLLELILGGRAPAAILLREPDEILALGAIVAEELFGRSLPIACLGERFDELAAYPWARLADGRLELHRDAPPPLEARPAEALATDAGPRLDAFDQALLAGEHGEAARLAMRIVLRMAALQGAQRLIDIQRAHIDACIYTGPAGLRFAETLRDLGARVRVPTTLNAISVDQRRWREQGVPAALGEPAAALARAYLDMGAQPSFTCAPYLLDDSARAGEQIVWAESNAVLFANSVLGARTNKYADFMDICCALTGRAPLAGCHLDEQRQARVLIEVEDLGSVDDAFYPTLGYLCGLLCDGQIPAIDGLRQRQPDHDALKAFGAALGTSSSVPMFHVIGVTPEAPDLASAFGGRAPRRTLRVGRERLRDAWRELDSAGETRIDLVALGNPHFSASEFAQLAALCHGRRRHPEVALVITSSRQVVAQAEAAGHLATLQAFGARLVTDTCWCMLDEPLVPPGARTLMTNSAKYAHYAPGLVGRQVRFAGLAGCVEAAVGGRSPAGLPAWLSEDC
**Q.** For B1, which binding is on record?
**A.** no binding
